Where a name gives a salt, the structure may show the parent alone. The list shows a part of the results. Single values are uncertain here, since repeats match poorly.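 Screen of FDA-approved drugs, each combined with colistin at one-eighth of its MIC, against a multidrug-resistant mcr-1-positive clinical E. coli isolate; growth read as OD600 after 24 h. Bacteria without drug were the growth control and plain broth the blank. A combination counted as active when OD600 fell below 0.2.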
Tested on: Escherichia coli 42 (mcr-1-positive clinical isolate)
Test: OD600 after 24 h growth with compound plus colistin (absorbance units (OD600)); higher = more bacterial growth (less inhibition)
Details: first compound 25 µM; colistin concentration 0.5 ug/mL; incubation time 24 h; 37 °C

Row | Compound | OD600
1 | CN(C)C(=O)Oc1cccc([N+](C)(C)C)c1 [Neostigmine methyl sulfate] + CCC(C)CCCC(=O)N[C@@H](CCN)C(=O)N[C@H](C(=O)N[C@@H](CCN)C(=O)N[C@H]1CCNC(=O)[C@H]([C@@H](C)O)NC(=O)[C@H](CCN)NC(=O)[C@H](CCN)NC(=O)[C@H](CC(C)C)NC(=O)[C@@H](CC(C)C)NC(=O)[C@H](CCN)NC1=O)[C@@H](C)O [colistin] | inactive: 1.16
2 | CC(C)N(CCC(C(N)=O)(c1ccccc1)c1ccccn1)C(C)C (stereo unspecified) [Disopyramide] + CCC(C)CCCC(=O)N[C@@H](CCN)C(=O)N[C@H](C(=O)N[C@@H](CCN)C(=O)N[C@H]1CCNC(=O)[C@H]([C@@H](C)O)NC(=O)[C@H](CCN)NC(=O)[C@H](CCN)NC(=O)[C@H](CC(C)C)NC(=O)[C@@H](CC(C)C)NC(=O)[C@H](CCN)NC1=O)[C@@H](C)O [colistin] | inactive: 1.12
3 | CN(C)[C@@H]1C(=O)C(C(N)=O)=C(O)[C@@]2(O)C(=O)C3=C(O)c4c(O)cccc4[C@@](C)(O)[C@H]3[C@H](O)[C@@H]12 [Oxytetracycline] + CCC(C)CCCC(=O)N[C@@H](CCN)C(=O)N[C@H](C(=O)N[C@@H](CCN)C(=O)N[C@H]1CCNC(=O)[C@H]([C@@H](C)O)NC(=O)[C@H](CCN)NC(=O)[C@H](CCN)NC(=O)[C@H](CC(C)C)NC(=O)[C@@H](CC(C)C)NC(=O)[C@H](CCN)NC1=O)[C@@H](C)O [colistin] | inactive: 1.24
4 | O=C(O[C@H]1C[C@H]2CC[C@@H](C1)[N+]21CCCC1)C(O)(c1ccccc1)c1ccccc1 [Trospium chloride] + CCC(C)CCCC(=O)N[C@@H](CCN)C(=O)N[C@H](C(=O)N[C@@H](CCN)C(=O)N[C@H]1CCNC(=O)[C@H]([C@@H](C)O)NC(=O)[C@H](CCN)NC(=O)[C@H](CCN)NC(=O)[C@H](CC(C)C)NC(=O)[C@@H](CC(C)C)NC(=O)[C@H](CCN)NC1=O)[C@@H](C)O [colistin] | inactive: 0.853
5 | CCCN1C[C@H](CSC)C[C@@H]2c3cccc4[nH]cc(c34)C[C@H]21 [Pergolide mesylate] + CCC(C)CCCC(=O)N[C@@H](CCN)C(=O)N[C@H](C(=O)N[C@@H](CCN)C(=O)N[C@H]1CCNC(=O)[C@H]([C@@H](C)O)NC(=O)[C@H](CCN)NC(=O)[C@H](CCN)NC(=O)[C@H](CC(C)C)NC(=O)[C@@H](CC(C)C)NC(=O)[C@H](CCN)NC1=O)[C@@H](C)O [colistin] | inactive: 1.06
6 | O=P1(NCCCl)OCCCN1CCCl (stereo unspecified) [Ifosfamide] + CCC(C)CCCC(=O)N[C@@H](CCN)C(=O)N[C@H](C(=O)N[C@@H](CCN)C(=O)N[C@H]1CCNC(=O)[C@H]([C@@H](C)O)NC(=O)[C@H](CCN)NC(=O)[C@H](CCN)NC(=O)[C@H](CC(C)C)NC(=O)[C@@H](CC(C)C)NC(=O)[C@H](CCN)NC1=O)[C@@H](C)O [colistin] | inactive: 1.02
7 | CC(O)(CS(=O)(=O)c1ccc(F)cc1)C(=O)Nc1ccc(C#N)c(C(F)(F)F)c1 (stereo unspecified) [Bicalutamide] + CCC(C)CCCC(=O)N[C@@H](CCN)C(=O)N[C@H](C(=O)N[C@@H](CCN)C(=O)N[C@H]1CCNC(=O)[C@H]([C@@H](C)O)NC(=O)[C@H](CCN)NC(=O)[C@H](CCN)NC(=O)[C@H](CC(C)C)NC(=O)[C@@H](CC(C)C)NC(=O)[C@H](CCN)NC1=O)[C@@H](C)O [colistin] | inactive: 0.993
8 | CC(C)OC(=O)[C@H](C)N[P@](=O)(CO[C@H](C)Cn1cnc2c(N)ncnc21)Oc1ccccc1 [Tenofovir alafenamide] + CCC(C)CCCC(=O)N[C@@H](CCN)C(=O)N[C@H](C(=O)N[C@@H](CCN)C(=O)N[C@H]1CCNC(=O)[C@H]([C@@H](C)O)NC(=O)[C@H](CCN)NC(=O)[C@H](CCN)NC(=O)[C@H](CC(C)C)NC(=O)[C@@H](CC(C)C)NC(=O)[C@H](CCN)NC1=O)[C@@H](C)O [colistin] | inactive: 0.986
9 | N[C@@H]1C[C@H]1c1ccccc1 [Tranylcypromine (2-PCPA) hydrochloride] + CCC(C)CCCC(=O)N[C@@H](CCN)C(=O)N[C@H](C(=O)N[C@@H](CCN)C(=O)N[C@H]1CCNC(=O)[C@H]([C@@H](C)O)NC(=O)[C@H](CCN)NC(=O)[C@H](CCN)NC(=O)[C@H](CC(C)C)NC(=O)[C@@H](CC(C)C)NC(=O)[C@H](CCN)NC1=O)[C@@H](C)O [colistin] | inactive: 0.936
10 | Oc1cc(Cl)ccc1Oc1ccc(Cl)cc1Cl [Triclosan] + CCC(C)CCCC(=O)N[C@@H](CCN)C(=O)N[C@H](C(=O)N[C@@H](CCN)C(=O)N[C@H]1CCNC(=O)[C@H]([C@@H](C)O)NC(=O)[C@H](CCN)NC(=O)[C@H](CCN)NC(=O)[C@H](CC(C)C)NC(=O)[C@@H](CC(C)C)NC(=O)[C@H](CCN)NC1=O)[C@@H](C)O [colistin] | active: 0.037
11 | CN(C)[C@@H]1C(=O)C(C(N)=O)=C(O)[C@@]2(O)C(=O)C3=C(O)c4c(O)cccc4[C@@](C)(O)[C@H]3C[C@@H]12 [Tetracycline hydrochloride] + CCC(C)CCCC(=O)N[C@@H](CCN)C(=O)N[C@H](C(=O)N[C@@H](CCN)C(=O)N[C@H]1CCNC(=O)[C@H]([C@@H](C)O)NC(=O)[C@H](CCN)NC(=O)[C@H](CCN)NC(=O)[C@H](CC(C)C)NC(=O)[C@@H](CC(C)C)NC(=O)[C@H](CCN)NC1=O)[C@@H](C)O [colistin] | inactive: 1.09
12 | CC(=O)O[C@H]1CC[C@@]2(C)C(=CC[C@@H]3[C@@H]2CC[C@]2(C)C(=O)CC[C@@H]32)C1 [Dehydroisoandrosterone 3-acetate] + CCC(C)CCCC(=O)N[C@@H](CCN)C(=O)N[C@H](C(=O)N[C@@H](CCN)C(=O)N[C@H]1CCNC(=O)[C@H]([C@@H](C)O)NC(=O)[C@H](CCN)NC(=O)[C@H](CCN)NC(=O)[C@H](CC(C)C)NC(=O)[C@@H](CC(C)C)NC(=O)[C@H](CCN)NC1=O)[C@@H](C)O [colistin] | inactive: 1.01
13 | CC[C@@H](C(N)=O)N1CCCC1=O [Levetiracetam] + CCC(C)CCCC(=O)N[C@@H](CCN)C(=O)N[C@H](C(=O)N[C@@H](CCN)C(=O)N[C@H]1CCNC(=O)[C@H]([C@@H](C)O)NC(=O)[C@H](CCN)NC(=O)[C@H](CCN)NC(=O)[C@H](CC(C)C)NC(=O)[C@@H](CC(C)C)NC(=O)[C@H](CCN)NC1=O)[C@@H](C)O [colistin] | inactive: 1.12
14 | Cc1cccc([C@H](C)c2c[nH]cn2)c1C [Dexmedetomidine] + CCC(C)CCCC(=O)N[C@@H](CCN)C(=O)N[C@H](C(=O)N[C@@H](CCN)C(=O)N[C@H]1CCNC(=O)[C@H]([C@@H](C)O)NC(=O)[C@H](CCN)NC(=O)[C@H](CCN)NC(=O)[C@H](CC(C)C)NC(=O)[C@@H](CC(C)C)NC(=O)[C@H](CCN)NC1=O)[C@@H](C)O [colistin] | inactive: 1.02
15 | CCC1(c2ccc(N)cc2)CCC(=O)NC1=O (stereo unspecified) [Aminoglutethimide] + CCC(C)CCCC(=O)N[C@@H](CCN)C(=O)N[C@H](C(=O)N[C@@H](CCN)C(=O)N[C@H]1CCNC(=O)[C@H]([C@@H](C)O)NC(=O)[C@H](CCN)NC(=O)[C@H](CCN)NC(=O)[C@H](CC(C)C)NC(=O)[C@@H](CC(C)C)NC(=O)[C@H](CCN)NC1=O)[C@@H](C)O [colistin] | inactive: 1.06
16 | O=C(O)CCCc1ccc(N(CCCl)CCCl)cc1 [Chlorambucil] + CCC(C)CCCC(=O)N[C@@H](CCN)C(=O)N[C@H](C(=O)N[C@@H](CCN)C(=O)N[C@H]1CCNC(=O)[C@H]([C@@H](C)O)NC(=O)[C@H](CCN)NC(=O)[C@H](CCN)NC(=O)[C@H](CC(C)C)NC(=O)[C@@H](CC(C)C)NC(=O)[C@H](CCN)NC1=O)[C@@H](C)O [colistin] | inactive: 0.735
17 | CN(C)[C@@H]1C(=O)C(C(N)=O)=C(O)[C@@]2(O)C(=O)C3=C(O)c4c(O)ccc(Cl)c4[C@@](C)(O)[C@H]3C[C@@H]12 [Chlortetracycline hydrochloride] + CCC(C)CCCC(=O)N[C@@H](CCN)C(=O)N[C@H](C(=O)N[C@@H](CCN)C(=O)N[C@H]1CCNC(=O)[C@H]([C@@H](C)O)NC(=O)[C@H](CCN)NC(=O)[C@H](CCN)NC(=O)[C@H](CC(C)C)NC(=O)[C@@H](CC(C)C)NC(=O)[C@H](CCN)NC1=O)[C@@H](C)O [colistin] | inactive: 0.852
18 | Cn1c(CCCC(=O)O)nc2cc(N(CCCl)CCCl)ccc21 [Bendamustine hydrochloride] + CCC(C)CCCC(=O)N[C@@H](CCN)C(=O)N[C@H](C(=O)N[C@@H](CCN)C(=O)N[C@H]1CCNC(=O)[C@H]([C@@H](C)O)NC(=O)[C@H](CCN)NC(=O)[C@H](CCN)NC(=O)[C@H](CC(C)C)NC(=O)[C@@H](CC(C)C)NC(=O)[C@H](CCN)NC1=O)[C@@H](C)O [colistin] | inactive: 0.935
19 | CC1(C)C(C=C(Cl)Cl)C1C(=O)OCc1cccc(Oc2ccccc2)c1 (stereo unspecified) [Permethrin] + CCC(C)CCCC(=O)N[C@@H](CCN)C(=O)N[C@H](C(=O)N[C@@H](CCN)C(=O)N[C@H]1CCNC(=O)[C@H]([C@@H](C)O)NC(=O)[C@H](CCN)NC(=O)[C@H](CCN)NC(=O)[C@H](CC(C)C)NC(=O)[C@@H](CC(C)C)NC(=O)[C@H](CCN)NC1=O)[C@@H](C)O [colistin] | inactive: 1.1
20 | O=P1(N(CCCl)CCCl)NCCCO1 (stereo unspecified) [Cyclophosphamide hydrate] + CCC(C)CCCC(=O)N[C@@H](CCN)C(=O)N[C@H](C(=O)N[C@@H](CCN)C(=O)N[C@H]1CCNC(=O)[C@H]([C@@H](C)O)NC(=O)[C@H](CCN)NC(=O)[C@H](CCN)NC(=O)[C@H](CC(C)C)NC(=O)[C@@H](CC(C)C)NC(=O)[C@H](CCN)NC1=O)[C@@H](C)O [colistin] | inactive: 0.857
21 | CCN(C)C(=O)Oc1cccc([C@H](C)N(C)C)c1 [Rivastigmine] + CCC(C)CCCC(=O)N[C@@H](CCN)C(=O)N[C@H](C(=O)N[C@@H](CCN)C(=O)N[C@H]1CCNC(=O)[C@H]([C@@H](C)O)NC(=O)[C@H](CCN)NC(=O)[C@H](CCN)NC(=O)[C@H](CC(C)C)NC(=O)[C@@H](CC(C)C)NC(=O)[C@H](CCN)NC1=O)[C@@H](C)O [colistin] | inactive: 0.9

Reformatted in markdown: part of the list above.

| Row | Compound | OD600 |
| --- | --- | --- |
| 12 | CC(=O)O[C@H]1CC[C@@]2(C)C(=CC[C@@H]3[C@@H]2CC[C@]2(C)C(=O)CC[C@@H]32)C1 [Dehydroisoandrosterone 3-acetate] + CCC(C)CCCC(=O)N[C@@H](CCN)C(=O)N[C@H](C(=O)N[C@@H](CCN)C(=O)N[C@H]1CCNC(=O)[C@H]([C@@H](C)O)NC(=O)[C@H](CCN)NC(=O)[C@H](CCN)NC(=O)[C@H](CC(C)C)NC(=O)[C@@H](CC(C)C)NC(=O)[C@H](CCN)NC1=O)[C@@H](C)O [colistin] | inactive: 1.01 |
| 13 | CC[C@@H](C(N)=O)N1CCCC1=O [Levetiracetam] + CCC(C)CCCC(=O)N[C@@H](CCN)C(=O)N[C@H](C(=O)N[C@@H](CCN)C(=O)N[C@H]1CCNC(=O)[C@H]([C@@H](C)O)NC(=O)[C@H](CCN)NC(=O)[C@H](CCN)NC(=O)[C@H](CC(C)C)NC(=O)[C@@H](CC(C)C)NC(=O)[C@H](CCN)NC1=O)[C@@H](C)O [colistin] | inactive: 1.12 |

From the supplement of paper PMC11546906
